# Source: PubChem BioAssay AID270 (DTP/NCI, 2004)
# The list is a part of this screen's results and no random one: it is rich in T/C values a quarter to a half above the control, in often repeated tests (any T/C) and in doses without a T/C. Further doses and runs are listed elsewhere. T/C: endpoint of the treated group in % of that of the vehicle group. Schedule codes are those of the source, taken here to give the interval after Q, in days (D) or hours (H), and the number of doses after X. Some entries hold several experiments; their values stand side by side, smallest first. Some entries give survivors of the animals treated and no T/C: the source files T/C as zero there, which appears to mark a toxic dose or a test without result, not a measured value. Some survivor counts are full or nearly so, which does not show that the dose was tolerated: survival well below the control is almost never listed, so the zero probably covers shortened survival too. Counts of survivors are from the toxicity check (mostly the fifth day) where no day follows; animals may have died later. Brackets with × say how often a value occurs here. For survival time, this PubChem deposit counts one and a half times the control or more as active, and values a quarter to a half above the control carry no call in these data; other NCI protocols may use other cut-offs. *1 amine or outer side, *2 acyl side, *3 side chain or, on linkers, in order; H or OH if unused. Where a SMILES comes first, the peptide text is derived from it. Bridges are numbered along the chain shown (N, C = ends). Roman numbers before positions name the chains, in order. [ ]: non-standard residue; d: D form. Actinocin(1to9) = Cc1c2oc3c(C)ccc(C(=O)[*:2])c3nc-2c(C(=O)[*:1])c(N)c1=O; NMeV = CN[CH](C(=O)O)C(C)C; Sar = CNCC(=O)O
# Test system: BDF1 mice, s.c. Lewis lung carcinoma, T/C %
# Test: NCI In Vivo Anticancer Drug Screen. Data for tumor model Lewis Lung Carcinoma (subcutaneous) in B6D2F1 (BDF1) mice
# In short: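 First, mice carry a transplantable tumor. Next, groups receive either compound or vehicle. Finally, survival or tumor dimensions in the dosed animals are divided by the corresponding control figure.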
# [1] = T/C endpoint: median survival time, dose: 127.0 mg/kg/injection, schedule: Q01DX001 (ip), vehicle: saline with Tween-80, higher T/C = longer survival
structure (smiles),measurement,setting,value
CCC(c1ccc(OC(=O)Cc2ccc(N(CCCl)CCCl)cc2)cc1)C(CC)c1ccc(OC(=O)Cc2ccc(N(CCCl)CCCl)cc2)cc1 (configuration not stated),survivor count,"T/C endpoint: median survival time, dose: 200.0 mg/kg/injection, schedule: Q02DX009 (ip), vehicle: saline with Tween-80, higher T/C = longer survival",10 of 10
same,survivor count,"T/C endpoint: median survival time, dose: 400.0 mg/kg/injection, schedule: Q02DX009 (ip), vehicle: saline with Tween-80, higher T/C = longer survival",10 of 10
N=C(N)NC(=N)Nc1ccc(NC(=O)Nc2ccc(Nc3c4ccccc4nc4cc([N+](=O)[O-])ccc34)cc2)cc1,T/C,"T/C endpoint: median survival time, dose: 3.13 mg/kg/injection, schedule: Q01DX009 (ip), vehicle: water, higher T/C = longer survival",125 % of control
O=NN(CCCl)C(=O)NC1C2CC3CC(C2)CC1C3 (configuration not stated),survivor count,"T/C endpoint: median survival time, dose: 20.0 mg/kg/injection, schedule: Q01DX001 (ip), vehicle: Klucel (hydroxypropylcellulose) (HPC), higher T/C = longer survival",10 of 10
same,survivor count,"T/C endpoint: median survival time, dose: 40.0 mg/kg/injection, schedule: Q01DX001 (ip), vehicle: Klucel (hydroxypropylcellulose) (HPC), higher T/C = longer survival",10 of 10
same,T/C,"T/C endpoint: median survival time, dose: 80.0 mg/kg/injection, schedule: Q01DX001 (ip), vehicle: Klucel (hydroxypropylcellulose) (HPC), higher T/C = longer survival",141 % of control
same,T/C,[1],141 % of control
same,survivor count,[1],10 of 10
same,survivor count,"T/C endpoint: median survival time, dose: 160.0 mg/kg/injection, schedule: Q01DX001 (ip), vehicle: Klucel (hydroxypropylcellulose) (HPC), higher T/C = longer survival",9 of 10
same,survivor count,"T/C endpoint: median survival time, dose: 191.0 mg/kg/injection, schedule: Q01DX001 (ip), vehicle: saline with Tween-80, higher T/C = longer survival",8 of 10 and 10 of 10
same,survivor count,"T/C endpoint: median survival time, dose: 287.0 mg/kg/injection, schedule: Q01DX001 (ip), vehicle: saline with Tween-80, higher T/C = longer survival",9 of 10 (2×)
same,survivor count,"T/C endpoint: median survival time, dose: 320.0 mg/kg/injection, schedule: Q01DX001 (ip), vehicle: Klucel (hydroxypropylcellulose) (HPC), higher T/C = longer survival",3 of 10 and 10 of 10
same,survivor count,"T/C endpoint: median tumor weight (est.), dose: 127.0 mg/kg/injection, schedule: Q01DX001 (ip), vehicle: DMSO, higher T/C = larger tumour",1 of 10 on day 14
same,survivor count,"T/C endpoint: median tumor weight (est.), dose: 191.0 mg/kg/injection, schedule: Q01DX001 (ip), vehicle: DMSO, higher T/C = larger tumour",0 of 10 on day 14
same,survivor count,"T/C endpoint: median tumor weight (est.), dose: 241.0 mg/kg/injection, schedule: Q01DX001 (ip), vehicle: saline with Tween-80, higher T/C = larger tumour",3 of 10 on day 16
same,survivor count,"T/C endpoint: median tumor weight (est.), dose: 287.0 mg/kg/injection, schedule: Q01DX001 (ip), vehicle: DMSO, higher T/C = larger tumour",0 of 10 on day 14
same,survivor count,"T/C endpoint: median tumor weight (est.), dose: 287.0 mg/kg/injection, schedule: Q01DX001 (sc), vehicle: olive oil, sesame oil, peanut oil, higher T/C = larger tumour",5 of 10 on day 14
C[C@]12CCC(=O)C=C1CC[C@@H]1[C@@H]2[C@@H](O)C[C@@]2(C)[C@H]1CC[C@]2(O)C(=O)COC(=O)c1ccc([N+](=O)[O-])cc1Cl,survivor count,"T/C endpoint: mean tumor weight, dose: 1000.0 mg/kg/injection, schedule: Q01DX011 (sc), vehicle: steroid suspending solution, higher T/C = larger tumour",2 of 6
Cc1nnc(NS(=O)(=O)c2ccc(N=Nc3nc4[nH]c(N)nc(=S)c4[nH]3)cc2)s1,survivor count,"T/C endpoint: median survival time, dose: 400.0 mg/kg/injection, schedule: Q01DX009 (ip), vehicle: saline, higher T/C = longer survival",4 of 10
COC1C(OC(=O)c2ccc(C)[nH]2)C(O)C(Oc2ccc3c(O)c(NC(=O)c4ccc(O)c(CC=C(C)C)c4)c(=O)oc3c2Cl)OC1(C)C (configuration not stated),survivor count,"T/C endpoint: median survival time, dose: 1.5 mg/kg/injection, schedule: Q01DX009 (ip), vehicle: other, higher T/C = longer survival",9 of 10 and 10 of 10
same,survivor count,"T/C endpoint: median survival time, dose: 3.0 mg/kg/injection, schedule: Q01DX009 (ip), vehicle: other, higher T/C = longer survival",8 of 10
same,survivor count,"T/C endpoint: median survival time, dose: 6.0 mg/kg/injection, schedule: Q01DX009 (ip), vehicle: other, higher T/C = longer survival",8 of 10
same,survivor count,"T/C endpoint: median survival time, dose: 6.25 mg/kg/injection, schedule: Q01DX009 (ip), vehicle: other, higher T/C = longer survival",10 of 10
same,survivor count,"T/C endpoint: median survival time, dose: 12.0 mg/kg/injection, schedule: Q01DX009 (ip), vehicle: other, higher T/C = longer survival",9 of 10 and 10 of 10
same,survivor count,"T/C endpoint: median survival time, dose: 12.5 mg/kg/injection, schedule: Q01DX009 (ip), vehicle: other, higher T/C = longer survival",9 of 9
same,survivor count,"T/C endpoint: median survival time, dose: 48.0 mg/kg/injection, schedule: Q01DX009 (ip), vehicle: other, higher T/C = longer survival",10 of 10
CC[C@](O)(C(=O)O)c1cc2n(c(=O)c1CO)Cc1cc3ccccc3nc1-2,survivor count,"T/C endpoint: median survival time, dose: 4.0 mg/kg/injection, schedule: Q01DX009 (ip), vehicle: saline, higher T/C = longer survival",10 of 10
same,T/C,"T/C endpoint: median survival time, dose: 5.0 mg/kg/injection, schedule: Q04DX003 (ip), vehicle: saline, higher T/C = longer survival",137 % of control
same,survivor count,"T/C endpoint: median survival time, dose: 8.0 mg/kg/injection, schedule: Q01DX009 (ip), vehicle: saline, higher T/C = longer survival",10 of 10
same,T/C,"T/C endpoint: median survival time, dose: 10.0 mg/kg/injection, schedule: Q04DX003 (ip), vehicle: saline, higher T/C = longer survival",137 % of control
same,T/C,"T/C endpoint: median survival time, dose: 20.0 mg/kg/injection, schedule: Q04DX003 (ip), vehicle: saline, higher T/C = longer survival",131 % of control
same,T/C,"T/C endpoint: median survival time, dose: 40.0 mg/kg/injection, schedule: Q04DX003 (ip), vehicle: saline, higher T/C = longer survival",135 % of control
CCCCCC[N+](CCCCCC)(CCCCCC)CCCCCC,survivor count,"T/C endpoint: median survival time, dose: 6.0 mg/kg/injection, schedule: Q01DX009 (ip), vehicle: Klucel (hydroxypropylcellulose) (HPC), higher T/C = longer survival",9 of 10
CCc1ccccc1N1CCN(C(=O)c2cc(OC)c(OC)c(OC)c2)CC1,survivor count,"T/C endpoint: mean tumor weight, dose: 100.0 mg/kg/injection, schedule: Q01DX011 (ip), vehicle: carboxymethylcellulose (CMC), higher T/C = larger tumour",0 of 6
COc1ccc2c(c1)CC[C@@H]1[C@@H]2CC[C@]2(C)/C(=N\O)CC[C@@H]12,T/C,"T/C endpoint: mean tumor weight, dose: 50.0 mg/kg/injection, schedule: Q01DX011 (sc), vehicle: steroid suspending solution, evaluated on day 12, higher T/C = larger tumour",128 and 136 % of control
same,survivor count,"T/C endpoint: mean tumor weight, dose: 800.0 mg/kg/injection, schedule: Q01DX011 (sc), vehicle: steroid suspending solution, higher T/C = larger tumour",5 of 8
O=C(N/N=C/c1ccc(O)cc1O)c1cccnc1,survivor count,"T/C endpoint: median survival time, dose: 12.5 mg/kg/injection, schedule: Q01DX009 (ip), vehicle: olive oil, sesame oil, peanut oil, higher T/C = longer survival",10 of 10
same,survivor count,"T/C endpoint: median survival time, dose: 50.0 mg/kg/injection, schedule: Q01DX009 (ip), vehicle: olive oil, sesame oil, peanut oil, higher T/C = longer survival",10 of 10
same,survivor count,"T/C endpoint: median survival time, dose: 100.0 mg/kg/injection, schedule: Q01DX009 (ip), vehicle: olive oil, sesame oil, peanut oil, higher T/C = longer survival",9 of 10
same,survivor count,"T/C endpoint: median survival time, dose: 200.0 mg/kg/injection, schedule: Q01DX009 (ip), vehicle: olive oil, sesame oil, peanut oil, higher T/C = longer survival",0 of 10
"CCC(C)C1NC(=O)C(NC(=O)c2c3nc4c(C(=O)NC5C(=O)NC(C(C)CC)C(=O)N6CCCC6C(=O)N(C)CC(=O)N(C)C(C(C)C)C(=O)OC5C)ccc(C)c4oc-3c(C)c(=O)c2N)C(C)OC(=O)C(C(C)C)N(C)C(=O)CN(C)C(=O)C2CCCN2C1=O (configuration not stated) (I: TIP[Sar][NMeV] / II: TIP[Sar][NMeV]; ester I:1-I:C, II:1-II:C; linker I:N-II:N via Actinocin(1to9); configuration not given here)",T/C,"T/C endpoint: median survival time, dose: 100.0 micrograms/kg/injection, schedule: Q01DX009 (ip), vehicle: water, higher T/C = longer survival",130 % of control
same,survivor count,"T/C endpoint: median survival time, dose: 200.0 micrograms/kg/injection, schedule: Q01DX009 (ip), vehicle: water, higher T/C = longer survival",10 of 10
same,survivor count,"T/C endpoint: median survival time, dose: 600.0 micrograms/kg/injection, schedule: Q04DX003 (ip), vehicle: water, higher T/C = longer survival",9 of 10
same,survivor count,"T/C endpoint: median survival time, dose: 1200.0 micrograms/kg/injection, schedule: Q04DX003 (ip), vehicle: water, higher T/C = longer survival",10 of 10
O=S(=O)(O)c1cc(O)ccc1O,T/C,"T/C endpoint: mean tumor weight, dose: 88.0 mg/kg/injection, schedule: Q01DX011 (ip), vehicle: saline, evaluated on day 12, higher T/C = larger tumour",135 % of control
same,T/C,"T/C endpoint: mean tumor weight, dose: 200.0 mg/kg/injection, schedule: Q01DX011 (ip), vehicle: saline, evaluated on day 12, higher T/C = larger tumour",140 % of control
same,survivor count,"T/C endpoint: mean tumor weight, dose: 900.0 mg/kg/injection, schedule: Q01DX011 (ip), vehicle: saline, higher T/C = larger tumour",0 of 6
CC(C)C1(C(=O)NNC(=O)CCCc2ccc(N(CCCl)CCCl)cc2)OC2(O)CCCCCN2C1=O (configuration not stated),survivor count,"T/C endpoint: median survival time, dose: 25.0 mg/kg/injection, schedule: Q04DX003 (ip), vehicle: DMSO, higher T/C = longer survival",6 of 6
same,survivor count,"T/C endpoint: median survival time, dose: 50.0 mg/kg/injection, schedule: Q04DX003 (ip), vehicle: DMSO, higher T/C = longer survival",6 of 6
CN[C@@H](C)[C@@H](O)c1ccccc1,T/C,"T/C endpoint: mean tumor weight, dose: 50.0 mg/kg/injection, schedule: Q01DX011 (ip), vehicle: carboxymethylcellulose (CMC), evaluated on day 12, higher T/C = larger tumour",136 % of control
C[C@]12CC[C@H]3[C@@H](CC[C@]4(O)C[C@@H](O)CC[C@]34C=O)[C@@]1(O)CC[C@@H]2C1=CC(=O)OC1,T/C,"T/C endpoint: median survival time, dose: 6.25 mg/kg/injection, schedule: Q01DX009 (ip), vehicle: Klucel (hydroxypropylcellulose) (HPC), higher T/C = longer survival",126 % of control
COC1C(OC(=O)/C=C/C=C/C=C/C=C/C(=O)O)CCC2(CO2)C1C1(C)OC1CC=C(C)C (configuration not stated),survivor count,"T/C endpoint: mean tumor weight, dose: 100.0 mg/kg/injection, schedule: Q01DX011 (ip), vehicle: saline, higher T/C = larger tumour",2 of 7
same,survivor count,"T/C endpoint: mean tumor weight, dose: 200.0 mg/kg/injection, schedule: Q01DX011 (ip), vehicle: saline, higher T/C = larger tumour",0 of 7
same,survivor count,"T/C endpoint: mean tumor weight, dose: 400.0 mg/kg/injection, schedule: Q01DX011 (ip), vehicle: saline, higher T/C = larger tumour",0 of 7
COC12C(COC(N)=O)C3=C(C(=O)C(C)=C(N)C3=O)N1CC1C2N1C (configuration not stated),survivor count,"T/C endpoint: median survival time, dose: 8.0 mg/kg/injection, schedule: Q01DX011 (ip), vehicle: other, higher T/C = longer survival",8 of 10
same,survivor count,"T/C endpoint: median survival time, dose: 16.0 mg/kg/injection, schedule: Q01DX011 (ip), vehicle: other, higher T/C = longer survival",3 of 10
same,survivor count,"T/C endpoint: median survival time, dose: 32.0 mg/kg/injection, schedule: Q01DX011 (ip), vehicle: other, higher T/C = longer survival",0 of 10
